PubChem BioAssay AID1259405 – NCATS – 2018

Assay: 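Mouse-designed siRNAs used to find CHO productivity engineering targets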 (primary screen)
Cell system: Chinese hamster CHO-K1 ovary cells with stable secreted eGFP expression
Reagents: single siRNA against mouse genes, 0.8 pmol siRNA per well (2 µl of 400 nM stock)
Duration: 3 days
Measured: 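Per-well intracellular GFP measured by laser scanning cytometry, plus viability from ATP luminescence, each relative to plate median of non-targeting control wells, in %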
Reading the numbers: GFP, % of control: higher = more GFP per well, higher productivity; viability (ATP), % of control: higher = more viable cells (more ATP)
Hit rule: 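a knock-down is called active if GFP reaches 120% or more of non-targeting control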
This is one part, drawn at random, of about 50,000 reagents. About 4,000 of all reagents (8%) were called active. 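Mouse siRNA library applied to hamster cells; one well for each siRNA.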 A number with no mark means an inactive call. The numbers tell different reagents against one gene apart. No sequences are given here.

gene knocked down	reagent no.	GFP, % of control	viability (ATP), % of control
Srsf11 (serine and arginine-rich splicing factor 11)	1	83.2	80.7
Srsf11 (serine and arginine-rich splicing factor 11)	2	114	79.4
Srsf11 (serine and arginine-rich splicing factor 11)	3	70.2	81.1
Micall2 (MICAL-like 2)	1	123 (active)	74.4
Micall2 (MICAL-like 2)	2	74.4	62.2
Micall2 (MICAL-like 2)	3	102	95.9
Plekhg3 (pleckstrin homology and RhoGEF domain containing G3)	1	97.9	81.5
Plekhg3 (pleckstrin homology and RhoGEF domain containing G3)	2	91.2	102
Plekhg3 (pleckstrin homology and RhoGEF domain containing G3)	3	165 (active)	160
Sptlc3 (serine palmitoyltransferase, long chain base subunit 3)	1	80.9	88.4
Sptlc3 (serine palmitoyltransferase, long chain base subunit 3)	2	62.2	97.2
Sptlc3 (serine palmitoyltransferase, long chain base subunit 3)	3	77.6	72.2
Trpc6	1	75	69.2
Trpc6	2	44.2	41.5
Trpc6	3	68	67.2
Akr1e1 (aldo-keto reductase family 1, member E1)	1	93.7	71.1
Akr1e1 (aldo-keto reductase family 1, member E1)	2	71.8	59.6
Akr1e1 (aldo-keto reductase family 1, member E1)	3	96.5	61.1
Twist2 (twist basic helix-loop-helix transcription factor 2)	1	108	84.4
Twist2 (twist basic helix-loop-helix transcription factor 2)	2	109	95.4
Twist2 (twist basic helix-loop-helix transcription factor 2)	3	68.4	73.1
Ezr (ezrin)	1	93.2	118
Ezr (ezrin)	2	77.9	76
Nrp2 (neuropilin 2)	1	52.3	40.7
Nrp2 (neuropilin 2)	2	62.2	82.1
Nrp2 (neuropilin 2)	3	81	68.7
L3hypdh (L-3-hydroxyproline dehydratase (trans-))	1	56.7	59.7
L3hypdh (L-3-hydroxyproline dehydratase (trans-))	2	120	85.9
L3hypdh (L-3-hydroxyproline dehydratase (trans-))	3	64.3	50.4
Dcdc5 (doublecortin domain containing 5)	1	53.2	52.1
Dcdc5 (doublecortin domain containing 5)	2	72.1	49
Dcdc5 (doublecortin domain containing 5)	3	73.1	81.3
Selenoo (selenoprotein O)	1	92.2	43.5
Selenoo (selenoprotein O)	2	96.2	78.8
Slc60a2a	1	119	70.3
Slc60a2a	2	78.6	59.1
Slc60a2a	3	88.6	81.7
Nop2 (NOP2 nucleolar protein)	1	95.4	77.2
Nop2 (NOP2 nucleolar protein)	2	96.6	88
Nop2 (NOP2 nucleolar protein)	3	45.8	25.9
Or56b2j (olfactory receptor family 56 subfamily B member 2J)	1	46.9	69
Or56b2j (olfactory receptor family 56 subfamily B member 2J)	2	88.1	75.1
Or56b2j (olfactory receptor family 56 subfamily B member 2J)	3	127 (active)	82.5
Foxm1 (forkhead box M1)	1	84.6	81.6
Foxm1 (forkhead box M1)	2	78.2	58
Foxm1 (forkhead box M1)	3	99.8	98.8
Slc4a3	1	98.8	40.5
Slc4a3	2	124 (active)	67.6
Slc4a3	3	101	86.5
Mast2 (microtubule associated serine/threonine kinase 2)	1	52.3	72.9
Ndst3 (N-deacetylase/N-sulfotransferase (heparan glucosaminyl) 3)	1	135 (active)	104
Ndst3 (N-deacetylase/N-sulfotransferase (heparan glucosaminyl) 3)	2	102	187
Ndst3 (N-deacetylase/N-sulfotransferase (heparan glucosaminyl) 3)	3	76.7	65.8
Dapk1 (death associated protein kinase 1)	1	95.8	83.9
Spryd4 (SPRY domain containing 4)	1	152 (active)	70
Spryd4 (SPRY domain containing 4)	2	79.5	33.4
Spryd4 (SPRY domain containing 4)	3	74.6	90.6
Or52e19b (olfactory receptor family 52 subfamily E member 19B)	1	28.5	42.1
Or52e19b (olfactory receptor family 52 subfamily E member 19B)	2	89.3	72.8
Or52e19b (olfactory receptor family 52 subfamily E member 19B)	3	49.4	76.6
Dcbld2 (discoidin, CUB and LCCL domain containing 2)	1	81.8	77
Dcbld2 (discoidin, CUB and LCCL domain containing 2)	2	89.8	65.7
Dcbld2 (discoidin, CUB and LCCL domain containing 2)	3	136 (active)	51.8
Slc35a4	1	156 (active)	57.7
Slc35a4	2	145 (active)	79
Slc35a4	3	77.8	88.5
Maneal (mannosidase, endo-alpha-like)	1	60.3	48.1
Maneal (mannosidase, endo-alpha-like)	2	128 (active)	89.2
Maneal (mannosidase, endo-alpha-like)	3	29.2	54.7
Zbtb25 (zinc finger and BTB domain containing 25)	1	122 (active)	122
Zbtb25 (zinc finger and BTB domain containing 25)	2	73.1	60.9
Zbtb25 (zinc finger and BTB domain containing 25)	3	106	102
Coq6 (coenzyme Q6 monooxygenase)	1	62.8	77.7
Coq6 (coenzyme Q6 monooxygenase)	2	83.6	49.9
Coq6 (coenzyme Q6 monooxygenase)	3	76.8	88.5
Chst4 (carbohydrate sulfotransferase 4)	1	111	106
Chst4 (carbohydrate sulfotransferase 4)	2	54.9	122
Chst4 (carbohydrate sulfotransferase 4)	3	112	110
Lce1l (late cornified envelope 1L)	1	94.7	89.2
Lce1l (late cornified envelope 1L)	2	32.2	38.1
Lce1l (late cornified envelope 1L)	3	54.8	38.3
Nphp4 (nephronophthisis 4 (juvenile) homolog (human))	1	126 (active)	65.9
Nphp4 (nephronophthisis 4 (juvenile) homolog (human))	2	110	73.7
Nphp4 (nephronophthisis 4 (juvenile) homolog (human))	3	79.1	71.3
Spred2 (sprouty-related EVH1 domain containing 2)	1	75.6	71.4
Spred2 (sprouty-related EVH1 domain containing 2)	2	56.7	57.9
Spred2 (sprouty-related EVH1 domain containing 2)	3	105	99.1
Ctag2 (cancer/testis antigen 2)	1	109	38.3
Ctag2 (cancer/testis antigen 2)	2	34.2	60.2
Ctag2 (cancer/testis antigen 2)	3	64.3	84.6
Slc24a4	1	74.2	51.9
Slc24a4	2	127 (active)	71.7
Slc24a4	3	80.1	80.9
Aym1 (activator of yeast meiotic promoters 1)	1	133 (active)	83.2
Aym1 (activator of yeast meiotic promoters 1)	2	69.8	71.6
Aym1 (activator of yeast meiotic promoters 1)	3	75.1	82.2
Slc20a1	1	48.4	70
Slc20a1	2	97.4	75
Slc20a1	3	48.5	59.5
Sim2 (single-minded family bHLH transcription factor 2)	1	109	116
Sim2 (single-minded family bHLH transcription factor 2)	2	73.3	82.5
Sim2 (single-minded family bHLH transcription factor 2)	3	79.6	94.8
Zfp579 (zinc finger protein 579)	1	102	54.5
Zfp579 (zinc finger protein 579)	2	87.7	86.2
Slc5a12	1	39	80.8
Slc5a12	2	49.9	81.9
Slc5a12	3	87.4	76.8
